Assays:
[1] = test system: MCF7 cells; assay: MTT anti-proliferation assay, MCF7; format: cell-based; conditions: Homo sapiens, MCF7, 48 h, read-out: IC50 tumor cell growth inhibition MCF7
[2] = test system: PC3 cells; assay: MTT anti-proliferation assay, PC3; format: cell-based; conditions: Homo sapiens, PC-3, 48 h, read-out: IC50 tumor cell growth inhibition PC3
[3] = test system: U937 cells; assay: MTT anti-proliferation assay, U937; format: cell-based; conditions: Homo sapiens, U-937, 48 h, read-out: IC50 tumor cell growth inhibition U937
[4] = test system: U937 xenograft; assay: In vivo antitumor assay against U937 xenograft; design: species or system athymic nude mice; conditions: 100 mg/kg/d intragastric, 16 days
[5] = test system: HL60 cells; assay: MTT anti-proliferation assay, HL60; format: cell-based; conditions: Homo sapiens, HL-60, 48 h, read-out: IC50 tumor cell growth inhibition HL60

In the case of O=C(CCCCCCC(=O)Nc1ccccc1)NO [SAHA, Suberoyl anilide hydroxamic acid, reference compound], the IC50 [1] is reported as 5.09 ± 0.21 µM, the IC50 [2] is reported as 6.33 ± 0.22 µM and the IC50 [3] is reported as 1380 ± 90 nM. The “inhibitory ratio (tumor weight)” value [4] was 24.97% and the IC50 [5] was 1440 ± 60 nM.
